Laboratory results: PubChem BioAssay AID1224828 (NIAID, 2016)
Test: 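Regulators linking TLR4 signalling to p65 nuclear translocation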 (primary screen). System: mouse RAW264.7 G9 macrophage reporter cells (GFP-p65, Tnf promoter-mCherry). Reagents: siRNA pool against mouse genes, 100 nM. Time to read-out: 2 days siRNA transfection, then 40 min LPS before fixation. Challenge: LPS (Salmonella minnesota R595) at 10 ng/ml. Measured: 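Imaged p65 nuclear translocation ratio, normalised to the plate median, converted to robust z-scores and averaged across two replicates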. Reading the numbers: p65 translocation robust z-score: higher = more nuclear NF-kappaB p65 after LPS than the plate median; nuclear/cytoplasmic p65 ratio: higher = more nuclear NF-kappaB p65. Hit rule: 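Called active when z exceeds 3.3 or falls under -1.56 (median of Tlr4 controls), giving activity score of at least 50; no calls for control wells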. Calls: active = hit (p65 shift raised or lowered); inactive = no clear change.
The deposit covers about 17,000 reagents; below is a part drawn at random. 762 of all reagents (4.5%) were called active. 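Active calls include both raised and lowered p65 entry, mostly lowered; wells with fewer than 50 cells lack a z-score.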 Raw values are not corrected between plates. Entries without a mark were called inactive. No sequences are given here.

gene symbol | p65 translocation robust z-score | nuclear/cytoplasmic p65 ratio, rep 1 | nuclear/cytoplasmic p65 ratio, rep 2 | low cell count flag
Csrnp2 (cysteine-serine-rich nuclear protein 2) | -2.52 (active) | 1.08 | 1.42 | enough cells to score
Ccl21b (C-C motif chemokine ligand 21B (leucine)) | -0.92 | 1.57 | 1.51 | enough cells to score
Dhrs1 (dehydrogenase/reductase 1) | 0.99 | 1.67 | 1.74 | enough cells to score
Shc1 (src homology 2 domain-containing transforming protein C1) | -0.81 | 1.44 | 1.27 | enough cells to score
Phlpp1 (PH domain and leucine rich repeat protein phosphatase 1) | 0.46 | 1.59 | 1.44 | enough cells to score
Lce1i (late cornified envelope 1I) | – | 1.47 | 1.39 | fewer than 50 cells per well; well left out of scoring
Tshb (thyroid stimulating hormone, beta subunit) | 1.41 | 1.61 | 1.89 | enough cells to score
Barx2 (BarH-like homeobox 2) | -1.28 | 1.39 | 1.45 | enough cells to score
Thpo (thrombopoietin) | 0.34 | 1.56 | 1.58 | enough cells to score
Tm2d2 (TM2 domain containing 2) | 1.73 | 1.89 | 1.69 | enough cells to score
Rfx6 (regulatory factor X, 6) | -1.15 | 1.27 | 1.09 | enough cells to score
Tmprss11f (transmembrane protease, serine 11f) | 1.07 | 1.35 | 1.44 | enough cells to score
Angel2 (angel homolog 2) | -1.72 (active) | 1.26 | 1.36 | enough cells to score
Clec18a (C-type lectin domain family 18, member A) | 0.96 | 1.99 | 1.69 | enough cells to score
Dgkk (diacylglycerol kinase kappa) | – | 1.39 | 1.53 | fewer than 50 cells per well; well left out of scoring
Pinx1 (PIN2/TERF1 interacting, telomerase inhibitor 1) | -0.86 | 1.37 | 1.3 | enough cells to score
Ddx11 (DEAD/H box helicase 11) | -0.27 | 1.57 | 1.58 | enough cells to score
Hacd2 (3-hydroxyacyl-CoA dehydratase 2) | 0.04 | 1.48 | 1.43 | enough cells to score
Sntg2 (syntrophin, gamma 2) | -1.1 | 1.25 | 1.11 | enough cells to score
Svs4 (seminal vesicle secretory protein 4) | -0.35 | 1.38 | 1.19 | enough cells to score
Rab12 (RAB12, member RAS oncogene family) | – | 1.53 | 1.24 | fewer than 50 cells per well; well left out of scoring
Pde1a (phosphodiesterase 1A, calmodulin-dependent) | 0.05 | 1.35 | 1.41 | enough cells to score
Trpc5 | -0.05 | 1.55 | 1.46 | enough cells to score
Mrap (melanocortin 2 receptor accessory protein) | 1.41 | 1.63 | 1.75 | enough cells to score
Ethe1 (ethylmalonic encephalopathy 1) | -0.29 | 1.67 | 1.32 | enough cells to score
Inpp1 (inositol polyphosphate-1-phosphatase) | 0.32 | 1.49 | 1.45 | enough cells to score
Cyp2f2 (cytochrome P450, family 2, subfamily f, polypeptide 2) | 0.72 | 1.49 | 2.11 | enough cells to score
Prss34 (serine protease 34) | 0.41 | 1.4 | 1.29 | enough cells to score
Tie1 | -1.61 (active) | 1.53 | 1.18 | enough cells to score
Wfs1 (wolframin ER transmembrane glycoprotein) | -0.21 | 1.55 | 1.51 | enough cells to score
Vmn1r85 (vomeronasal 1 receptor 85) | – | 1.54 | 1.22 | fewer than 50 cells per well; well left out of scoring
Pitpnb (phosphatidylinositol transfer protein, beta) | 0.11 | 1.44 | 1.19 | enough cells to score
Ipo4 (importin 4) | -0.7 | 1.53 | 1.27 | enough cells to score
Cacna2d3 (calcium channel, voltage-dependent, alpha2/delta subunit 3) | -1.01 | 1.42 | 1.64 | enough cells to score
Msh3 (mutS homolog 3) | 1.56 | 1.58 | 1.6 | enough cells to score
Phf10 (PHD finger protein 10) | 0.18 | 1.54 | 1.2 | enough cells to score

Continued; the last 7 above are carried over.
gene symbol | p65 translocation robust z-score | nuclear/cytoplasmic p65 ratio, rep 1 | nuclear/cytoplasmic p65 ratio, rep 2 | low cell count flag
Wfs1 (wolframin ER transmembrane glycoprotein) | -0.21 | 1.55 | 1.51 | enough cells to score
Vmn1r85 (vomeronasal 1 receptor 85) | – | 1.54 | 1.22 | fewer than 50 cells per well; well left out of scoring
Pitpnb (phosphatidylinositol transfer protein, beta) | 0.11 | 1.44 | 1.19 | enough cells to score
Ipo4 (importin 4) | -0.7 | 1.53 | 1.27 | enough cells to score
Cacna2d3 (calcium channel, voltage-dependent, alpha2/delta subunit 3) | -1.01 | 1.42 | 1.64 | enough cells to score
Msh3 (mutS homolog 3) | 1.56 | 1.58 | 1.6 | enough cells to score
Phf10 (PHD finger protein 10) | 0.18 | 1.54 | 1.2 | enough cells to score
B9d1 (B9 protein domain 1) | 0.27 | 1.4 | 1.51 | enough cells to score
Or5al5 (olfactory receptor family 5 subfamily AL member 5) | -0.33 | 1.57 | 1.37 | enough cells to score
Tle6 (transducin-like enhancer of split 6) | 0.73 | 1.4 | 1.32 | enough cells to score
Nudt16l1 (nudix hydrolase 16 like 1) | -0.77 | 1.38 | 1.4 | enough cells to score
Cars1 (cysteinyl-tRNA synthetase 1) | -0.16 | 1.47 | 1.86 | enough cells to score
Pibf1 (progesterone immunomodulatory binding factor 1) | -0.98 | 1.49 | 1.56 | enough cells to score
B430209F14Rik (RIKEN cDNA B430209F14 gene) | 1.48 | 1.86 | 2.02 | enough cells to score
Sars1 (seryl-tRNA synthetase 1) | -0.55 | 1.34 | 1.16 | enough cells to score
Kpna4 (karyopherin subunit alpha 4) | -0.67 | 1.33 | 1.34 | enough cells to score
Pou4f1 (POU domain, class 4, transcription factor 1) | -1.35 | 1.23 | 1.31 | enough cells to score
Lrfn3 | 1.86 | 1.96 | 1.86 | enough cells to score
Plp1 (proteolipid protein (myelin) 1) | -0.24 | 1.41 | 1.42 | enough cells to score
Nup98 (nucleoporin 98) | 2.78 | 2.38 | 2.02 | enough cells to score
Foxo1 (forkhead box O1) | -0.42 | 1.31 | 1.39 | enough cells to score
D330050P16RIK | 0.18 | 1.69 | 1.48 | enough cells to score
Pafah1b1 | -0.21 | 1.61 | 1.37 | enough cells to score
Nampt (nicotinamide phosphoribosyltransferase) | -0.63 | 1.39 | 1.31 | enough cells to score
Wars2 (tryptophanyl tRNA synthetase 2 (mitochondrial)) | -0.45 | 1.31 | 1.2 | enough cells to score
Sema3c | 0.16 | 1.58 | 1.57 | enough cells to score
Kirrel2 (kirre like nephrin family adhesion molecule 2) | 0.05 | 1.55 | 1.44 | enough cells to score
Cnot10 (CCR4-NOT transcription complex, subunit 10) | -0.12 | 1.58 | 1.76 | enough cells to score
C5ar1 (complement component 5a receptor 1) | – | 1.16 | 1.38 | fewer than 50 cells per well; well left out of scoring
2310067E19Rik (RIKEN cDNA 2310067E19 gene) | -2.13 (active) | 1.09 | 1.01 | enough cells to score
Fbxo45 (F-box protein 45) | 0.46 | 1.79 | 1.76 | enough cells to score
Arhgef6 (Rac/Cdc42 guanine nucleotide exchange factor 6) | -0.97 | 1.49 | 1.46 | enough cells to score
Mela (melanoma antigen) | -0.12 | 1.68 | 1.54 | enough cells to score
Olfml2a (olfactomedin-like 2A) | – | 1.01 | 1.2 | fewer than 50 cells per well; well left out of scoring
Cd99 (CD99 antigen) | – | 1.31 | 1.61 | fewer than 50 cells per well; well left out of scoring
Larp4b (La ribonucleoprotein 4B) | -0.22 | 1.46 | 1.32 | enough cells to score
Prtn3 (proteinase 3) | -0.08 | 1.35 | 1.22 | enough cells to score
Or10j27 (olfactory receptor family 10 subfamily J member 27) | 0.02 | 1.67 | 1.37 | enough cells to score
Mtmr6 (myotubularin related protein 6) | 1.32 | 1.59 | 1.54 | enough cells to score
Grin2a (glutamate receptor, ionotropic, NMDA2A (epsilon 1)) | -0.26 | 1.38 | 1.36 | enough cells to score
Or10ag57 (olfactory receptor family 10 subfamily AG member 57) | 1.47 | 1.9 | 1.78 | enough cells to score
Arhgdia (Rho GDP dissociation inhibitor alpha) | -0.26 | 1.59 | 1.57 | enough cells to score
Uhmk1 (U2AF homology motif (UHM) kinase 1) | 1.7 | 2 | 1.55 | enough cells to score
Ezr (ezrin) | -0.98 | 1.35 | 1.39 | enough cells to score
Trav3-3 (T cell receptor alpha variable 3-3) | 1.9 | 1.17 | 1.79 | enough cells to score
Chka (choline kinase alpha) | 3.25 | 1.93 | 1.8 | enough cells to score
